Data: patent publication US20240138453A1, “FOOD HAVING IMPROVED FLAVOR, NUTRITION, AND COLOR AND PREPARATION METHOD THEREFOR” (KOREA ADVANCED INSTITUTE OF SCIENCE AND TECHNOLOGY, priority 2021, published 2024)

Legend:
[1] = Appearance of TSP- and tofu-based vegetable patties; conditions: for color of vegetable patty after cooking: cooked on low heat, about 17 mg hemin, about 16 mg ZnPPIX or 100 mg hemoglobin per 100 g dough, FIG. 63
[2] = Tasting of cooked pressed-tofu-based vegetable patties

Molecule	color of patty dough before cooking ([1]; about 17 mg hemin reagent or 100 mg hemoglobin per 100 g dough, compared to negative control, FIG. 62)	color of vegetable patty after cooking [1]	flavor of vegetable patty on tasting ([2]; 10 mg of heme per 50 g dough)	flavor of vegetable patty on tasting ([2]; 18.5 mg of heme per 50 g dough)
hemoglobin	more grayish brown	light brown color	–	–
C=CC1=C(C)c2cc3[n-]c(cc4[n-]c(cc5nc(cc1n2)C(C)=C5C=C)c(C)c4CCC(=O)O)c(CCC(=O)O)c3C.[Cl-].[Fe+3] [heme, hemin]	–	darker brown color similar to that of patties with actual beef and pork added	the flavor of meat was detected without the flavor of tofu or bean curd soup	a stronger beef flavor was detected
